The nature of data set [1]: ECL activity of tertiary amines as coreactants, streptavidin-coated PT plates (Table IIb).
Data set [2] can be described thus: ECL activity of tertiary amines as coreactants, streptavidin-coated NPT plates (Table IIa).
Setting [3] is: PT plates, 0.3 nM Bt-IgG* bound, washed.
Where [4] appears, read: PT plates, 10 nM IgG* in solution.
Where [5] appears, read: PT plates, 200 mM tertiary amine, 200 mM phosphate, 0.1% Triton X-100, pH 7.5.
Where [6] appears, read: NPT plates, 0.3 nM Bt-IgG* bound, washed.
Setting [7] is: NPT plates, 10 nM IgG* in solution.
Setting [8] is: NPT plates, 200 mM tertiary amine, 200 mM phosphate, 0.1% Triton X-100, pH 7.5.

As for `O=S(=O)(O)CCNC(CO)(CO)CO` [N-tris(hydroxymethyl)methyl-2-aminoethane sulfonic acid], the Bound/Background in data set [1] (PT plates) is recorded as 9; in data set [2] (NPT plates), 57. Also, the Bound/Free in data set [1] (PT plates) was found to be 21; in data set [2] (NPT plates), 30. Besides, the figures for the “ECL Bound” value in data set [1] (setting [3]) and in data set [2] (setting [6]) were 3050 and 16062, respectively. The “ECL Free” value in data set [1] (setting [4]) is listed as 455; in data set [2] (setting [7]), 804. The results for the “ECL Background” value in data set [1] (setting [5]) and in data set [2] (setting [8]) were 324 and 282, respectively.
Regarding `O=S(=O)(O)CC(O)CN1CCN(CC(O)CS(=O)(=O)O)CC1` (centres unmarked) [Piperazine-N,N′-bis(2-hydroxypropane)sulfonic acid], the Bound/Background was found to be 11 in data set [1] (PT plates) and 306 in data set [2] (NPT plates). For the same compound, the Bound/Free in data set [1] (PT plates) is 11; in data set [2] (NPT plates), 50. Further, the “ECL Bound” value in data set [1] (setting [3]) was found to be 3842; in data set [2] (setting [6]), 86494. Further, the “ECL Free” value in data set [1] (setting [4]) worked out at 657; in data set [2] (setting [7]), 1995. Further, the results for the “ECL Background” value in data set [1] (setting [5]) and in data set [2] (setting [8]) were 338 and 283, respectively.
`COC(=O)CCN1CCN(CCC(=O)OC)CC1` [Piperazine-N,N′-bis-3-methylpropanoate]: in data set [1], the Bound/Background is 10, the Bound/Free is reported as 15, the “ECL Bound” value is recorded as 1807 and the “ECL Free” value stood at 287. For the same compound, the “ECL Background” value in data set [1] (pH 7.5) came out at 182. For the same compound, in data set [2], the Bound/Background is 71, the Bound/Free is on record as 40, the “ECL Bound” value is listed as 5377 and the “ECL Free” value stood at 210. Also, in data set [2] (pH 7.5), the “ECL Background” value is on record as 76.
Turning to `O=S(=O)(O)CCCN1CCN(CCCS(=O)(=O)O)CC1` [Piperazine-N,N′-bis-3-propanesulfonic acid], the Bound/Background in data set [1] (PT plates) was 6; in data set [2] (NPT plates), 134. In addition, the Bound/Free was 13 in data set [1] (PT plates) and 45 in data set [2] (NPT plates). Further, the “ECL Bound” value in data set [1] (setting [3]) is 499; in data set [2] (setting [6]), 12318. Further, the “ECL Free” value is given as 120 in data set [1] (setting [4]) and 362 in data set [2] (setting [7]). The “ECL Background” value in data set [1] (setting [5]) was found to be 88; in data set [2] (setting [8]) it was 92.
For `O=S(=O)(O)CCCCN1CCN(CCCCS(=O)(=O)O)CC1` [Piperazine-N,N′-bis-4-butanesulfonic acid], the results for the Bound/Background in data set [1] (PT plates) and in data set [2] (NPT plates) were 7 and 115, respectively. In addition, the Bound/Free in data set [1] (PT plates) is listed as 16; in data set [2] (NPT plates) it was 61. Moreover, the “ECL Bound” value in data set [1] (setting [3]) stood at 750; in data set [2] (setting [6]), 12490. Moreover, the figures for the “ECL Free” value in data set [1] (setting [4]) and in data set [2] (setting [7]) were 152 and 311, respectively. Moreover, the “ECL Background” value in data set [1] (setting [5]) is 111; in data set [2] (setting [8]) it was 109.
On to `COC(=O)CCN1CCN(CCO)CC1` [Piperazine-N-2-hydroxyethane-N′-3-methylpropanoate], for which, in data set [1], the Bound/Background turned out to be 10, the Bound/Free was 19, the “ECL Bound” value was 1624 and the “ECL Free” value was 234. Moreover, in data set [1] (pH 7.5), the “ECL Background” value turned out to be 155. In data set [2], the Bound/Background was 96, the Bound/Free stood at 58, the “ECL Bound” value is given as 12346 and the “ECL Free” value is reported as 340. Moreover, the “ECL Background” value in data set [2] (pH 7.5) stood at 128.
Turning to `O=S(=O)(O)CCCN1CCCCC1` [Piperidine-N-3-propanesulfonic acid], in data set [1], the Bound/Background is listed as 16, the Bound/Free is given as 3, the “ECL Bound” value is 6148 and the “ECL Free” value was 2234. Also, the “ECL Background” value in data set [1] (pH 7.5) is 376. In data set [2], the Bound/Background is given as 19, the Bound/Free stood at 7, the “ECL Bound” value was determined as 16067 and the “ECL Free” value stood at 9417. In addition, the “ECL Background” value in data set [2] (pH 7.5) amounted to 861.
For the compound `O=S(=O)(O)CCN1CCN(CCS(=O)(=O)O)CC1` [piperazine-N,N′-bis(2-ethanesulfonic acid)], the Bound/Background is 19 in data set [1] (PT plates) and 254 in data set [2] (NPT plates). The Bound/Free worked out at 34 in data set [1] (PT plates) and 67 in data set [2] (NPT plates). Also, the entries for the “ECL Bound” value in data set [1] (setting [3]) and in data set [2] (setting [6]) were 5560 and 41418, respectively. Moreover, the “ECL Free” value is 452 in data set [1] (setting [4]) and 777 in data set [2] (setting [7]). Also, the “ECL Background” value in data set [1] (setting [5]) stood at 297; in data set [2] (setting [8]), 163.

Values taken from patent US10753934B2, “Kits suitable for use in electrochemiluminescence methods and methods of effecting a specific-binding non-wash assay” (Meso Scale Technologies, priority 2001, dated 2020).
